PubChem BioAssay AID1224828 | NIAID | 2016
Purpose: 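Find genes required for NF-kappaB p65 moving into the nucleus after LPS in mouse macrophages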 (primary screen). Cell system: mouse RAW264.7 G9 macrophage reporter cells (GFP-p65, Tnf promoter-mCherry). Reagent: siRNA pool against mouse genes, 100 nM. Time to read-out: 2 days siRNA transfection, then 40 min LPS before fixation. Challenge: LPS (Salmonella minnesota R595) at 10 ng/ml. Measured: 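Microscopy ratio of nuclear to perinuclear-ring GFP-p65 signal, scaled to the plate median; gene score is the average of two replicate robust z-scores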. Reading the numbers: p65 translocation robust z-score: higher = more nuclear NF-kappaB p65 after LPS than the plate median; nuclear/cytoplasmic p65 ratio: higher = more nuclear NF-kappaB p65. Rule for the call: 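Called active when z exceeds 3.3 or falls under -1.56 (median of Tlr4 controls), giving activity score of at least 50; no calls for control wells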. Meaning of the calls: active = hit (p65 shift raised or lowered); inactive = no clear change.
Shown is a random part of about 17,000 reagents. Over the whole deposit, 762 (4.5%) got an active call. 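Active calls include both raised and lowered p65 entry, mostly lowered; wells with fewer than 50 cells lack a z-score.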 Raw values are not corrected between plates. A number with no mark means an inactive call. No sequences are given here.

The opening 3 entries, to show the layout:
gene,p65 translocation robust z-score,"nuclear/cytoplasmic p65 ratio, rep 1","nuclear/cytoplasmic p65 ratio, rep 2",low cell count flag
Adhfe1 (GeneID 76187),0.52,1.64,1.81,enough cells to score
Fign (GeneID 60344),0.06,1.57,1.5,enough cells to score
Cfap100 (GeneID 243538),,1.08,1.33,fewer than 50 cells per well; well left out of scoring

Results, from the first entry:
gene,p65 translocation robust z-score,"nuclear/cytoplasmic p65 ratio, rep 1","nuclear/cytoplasmic p65 ratio, rep 2",low cell count flag
Adhfe1 (GeneID 76187),0.52,1.64,1.81,enough cells to score
Fign (GeneID 60344),0.06,1.57,1.5,enough cells to score
Cfap100 (GeneID 243538),,1.08,1.33,fewer than 50 cells per well; well left out of scoring
Tst (GeneID 22117),-0.76,1.46,1.35,enough cells to score
Nip7 (GeneID 66164),1.87,1.68,1.83,enough cells to score
Pld3 (GeneID 18807),-0.74,1.23,1.18,enough cells to score
Cdpf1 (GeneID 72355),-0.05,1.3,1.35,enough cells to score
Zbed3 (GeneID 72114),,1.35,1.3,fewer than 50 cells per well; well left out of scoring
Usp16 (GeneID 74112),1.52,1.7,1.74,enough cells to score
Stau2 (GeneID 29819),0.6,1.52,1.28,enough cells to score
Vcl (GeneID 22330),0.58,1.62,2.01,enough cells to score
Cog8 (GeneID 97484),0.58,1.68,1.86,enough cells to score
Cog1 (GeneID 16834),-0.14,1.63,1.7,enough cells to score
Rhod (GeneID 11854),0.19,1.42,1.66,enough cells to score
Pms1 (GeneID 227099),0.28,1.55,1.43,enough cells to score
Nrsn1 (GeneID 22360),-1.05,1.26,1.11,enough cells to score
Krt71 (GeneID 56735),-1.51,1.29,1.27,enough cells to score
A130004G07Rik (retired record) (GeneID 320687),1.43,1.59,1.7,enough cells to score
Btbd1 (GeneID 83962),-0.2,1.37,1.53,enough cells to score
Adgre4 (GeneID 52614),-0.01,1.5,1.63,enough cells to score
Tada1 (GeneID 27878),-0.3,1.47,1.56,enough cells to score
Erc1 (GeneID 111173),-1.08,1.26,1.08,enough cells to score
Pmel (GeneID 20431),0.08,1.52,1.61,enough cells to score
Vmn1r44 (GeneID 113854),0.83,1.48,1.34,enough cells to score
Tas1r1 (GeneID 110326),0.53,1.59,1.66,enough cells to score
Pdlim4 (GeneID 30794),-0.04,1.39,1.46,enough cells to score
Ints14 (GeneID 69882),,1.53,1.67,fewer than 50 cells per well; well left out of scoring
Slc35a1 (GeneID 24060),-0.48,1.2,1.2,enough cells to score
Ptprv (GeneID 13924),0.85,1.49,1.27,enough cells to score
Inpp5f (GeneID 101490),1.67,1.69,1.61,enough cells to score
Nrl (GeneID 18185),0.05,1.44,1.44,enough cells to score
Phox2a (GeneID 11859),-0.11,1.34,1.39,enough cells to score
Fgf2 (GeneID 14173),-0.36,1.42,1.29,enough cells to score
Josd1 (GeneID 74158),-0.12,1.48,1.73,enough cells to score
Klk14 (GeneID 317653),,1.42,1.25,fewer than 50 cells per well; well left out of scoring
Polr3b (GeneID 70428),0.1,1.36,1.23,enough cells to score
Uchl5 (GeneID 56207),-0.37,1.49,1.42,enough cells to score
Capsl (GeneID 75568),-1.55,1.19,1.49,enough cells to score
Ap1m2 (GeneID 11768),-1.58 (active),1.28,1.53,enough cells to score
Rai1 (GeneID 19377),-0.63,1.47,1.39,enough cells to score
